Reference: paper PMC11986068

Chains of the proteins cited; added tags and fusions are not shown. Residues count along the entry.
UniProt Q61220, residues 25-819: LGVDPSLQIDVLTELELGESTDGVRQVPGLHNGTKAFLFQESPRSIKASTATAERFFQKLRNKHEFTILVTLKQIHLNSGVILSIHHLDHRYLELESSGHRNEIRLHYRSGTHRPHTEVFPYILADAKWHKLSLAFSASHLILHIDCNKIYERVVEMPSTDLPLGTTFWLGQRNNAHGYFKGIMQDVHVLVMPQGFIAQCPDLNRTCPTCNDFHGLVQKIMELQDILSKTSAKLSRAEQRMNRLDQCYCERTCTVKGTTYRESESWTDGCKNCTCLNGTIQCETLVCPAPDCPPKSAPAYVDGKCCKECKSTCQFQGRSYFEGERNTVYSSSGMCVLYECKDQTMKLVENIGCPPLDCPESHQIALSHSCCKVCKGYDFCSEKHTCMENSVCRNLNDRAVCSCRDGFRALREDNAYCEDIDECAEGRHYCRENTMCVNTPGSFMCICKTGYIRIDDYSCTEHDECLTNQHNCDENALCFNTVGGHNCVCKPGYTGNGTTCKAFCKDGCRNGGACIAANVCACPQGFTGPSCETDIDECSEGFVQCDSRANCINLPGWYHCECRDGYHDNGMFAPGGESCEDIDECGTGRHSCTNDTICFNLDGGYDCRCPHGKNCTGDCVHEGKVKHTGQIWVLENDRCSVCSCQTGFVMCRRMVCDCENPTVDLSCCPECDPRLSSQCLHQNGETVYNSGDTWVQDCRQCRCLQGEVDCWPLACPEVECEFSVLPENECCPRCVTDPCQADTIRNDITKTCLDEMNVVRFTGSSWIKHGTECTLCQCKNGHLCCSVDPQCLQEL
UniProt P11276, residues 33-2477: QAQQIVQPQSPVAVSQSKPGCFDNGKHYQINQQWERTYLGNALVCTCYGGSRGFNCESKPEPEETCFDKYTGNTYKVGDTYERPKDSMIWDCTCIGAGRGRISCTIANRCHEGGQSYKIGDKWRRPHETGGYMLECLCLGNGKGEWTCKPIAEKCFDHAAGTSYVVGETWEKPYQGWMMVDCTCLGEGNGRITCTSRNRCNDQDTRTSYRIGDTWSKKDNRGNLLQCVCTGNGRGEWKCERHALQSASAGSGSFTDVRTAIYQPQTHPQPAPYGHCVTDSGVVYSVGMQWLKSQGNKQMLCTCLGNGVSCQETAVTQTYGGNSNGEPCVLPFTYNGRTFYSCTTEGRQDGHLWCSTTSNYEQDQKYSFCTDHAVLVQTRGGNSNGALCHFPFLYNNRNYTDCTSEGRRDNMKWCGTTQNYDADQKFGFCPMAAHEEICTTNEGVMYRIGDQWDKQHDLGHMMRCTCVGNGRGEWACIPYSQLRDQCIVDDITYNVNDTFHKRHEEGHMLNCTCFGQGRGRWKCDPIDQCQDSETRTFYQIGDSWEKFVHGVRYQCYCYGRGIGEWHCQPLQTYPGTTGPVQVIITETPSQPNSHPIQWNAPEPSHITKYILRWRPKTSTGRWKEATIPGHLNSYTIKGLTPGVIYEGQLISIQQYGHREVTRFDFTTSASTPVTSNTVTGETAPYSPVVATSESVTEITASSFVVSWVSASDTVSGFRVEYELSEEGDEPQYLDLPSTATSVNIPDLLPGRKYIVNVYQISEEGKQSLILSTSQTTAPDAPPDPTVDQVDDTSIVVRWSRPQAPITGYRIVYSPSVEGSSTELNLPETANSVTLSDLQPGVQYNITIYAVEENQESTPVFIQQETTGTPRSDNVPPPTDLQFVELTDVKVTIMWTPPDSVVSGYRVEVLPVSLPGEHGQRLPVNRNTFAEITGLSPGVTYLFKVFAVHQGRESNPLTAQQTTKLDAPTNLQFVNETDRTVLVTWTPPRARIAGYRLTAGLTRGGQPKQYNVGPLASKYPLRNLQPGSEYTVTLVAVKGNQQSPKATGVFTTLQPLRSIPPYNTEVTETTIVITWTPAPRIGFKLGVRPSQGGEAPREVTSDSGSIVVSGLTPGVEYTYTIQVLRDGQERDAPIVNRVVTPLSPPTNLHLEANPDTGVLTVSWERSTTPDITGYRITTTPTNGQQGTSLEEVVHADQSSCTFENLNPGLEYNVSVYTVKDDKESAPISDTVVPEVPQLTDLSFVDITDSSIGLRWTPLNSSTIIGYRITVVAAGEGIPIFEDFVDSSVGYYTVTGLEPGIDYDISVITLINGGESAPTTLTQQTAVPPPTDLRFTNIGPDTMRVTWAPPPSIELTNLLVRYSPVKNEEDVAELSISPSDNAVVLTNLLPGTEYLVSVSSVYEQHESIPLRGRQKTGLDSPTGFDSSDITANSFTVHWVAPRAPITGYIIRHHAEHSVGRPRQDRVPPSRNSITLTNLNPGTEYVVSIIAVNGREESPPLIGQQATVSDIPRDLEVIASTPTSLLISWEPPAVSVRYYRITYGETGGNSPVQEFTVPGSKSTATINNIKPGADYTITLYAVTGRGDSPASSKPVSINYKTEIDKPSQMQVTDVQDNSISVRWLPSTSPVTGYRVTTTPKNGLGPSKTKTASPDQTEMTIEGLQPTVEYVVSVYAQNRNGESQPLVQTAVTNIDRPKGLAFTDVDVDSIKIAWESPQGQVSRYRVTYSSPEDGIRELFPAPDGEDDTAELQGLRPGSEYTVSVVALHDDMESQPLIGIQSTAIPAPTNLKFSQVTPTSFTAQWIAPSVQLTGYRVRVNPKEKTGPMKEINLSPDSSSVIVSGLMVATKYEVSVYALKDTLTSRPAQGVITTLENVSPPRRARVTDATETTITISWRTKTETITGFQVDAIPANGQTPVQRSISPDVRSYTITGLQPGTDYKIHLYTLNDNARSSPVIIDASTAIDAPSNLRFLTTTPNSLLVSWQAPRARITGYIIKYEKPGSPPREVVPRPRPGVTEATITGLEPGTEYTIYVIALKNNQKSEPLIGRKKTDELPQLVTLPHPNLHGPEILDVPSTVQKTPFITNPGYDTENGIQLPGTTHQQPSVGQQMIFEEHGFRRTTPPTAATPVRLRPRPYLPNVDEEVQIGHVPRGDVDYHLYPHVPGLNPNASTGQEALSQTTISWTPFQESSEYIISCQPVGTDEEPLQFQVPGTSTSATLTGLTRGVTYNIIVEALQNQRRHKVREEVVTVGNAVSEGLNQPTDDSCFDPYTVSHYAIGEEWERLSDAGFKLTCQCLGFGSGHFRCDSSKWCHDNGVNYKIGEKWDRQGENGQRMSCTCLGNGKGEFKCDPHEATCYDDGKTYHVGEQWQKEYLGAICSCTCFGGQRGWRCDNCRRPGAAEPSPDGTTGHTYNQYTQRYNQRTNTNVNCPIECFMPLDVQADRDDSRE

Biological target: His-labeled recombinant NELL2 (UniProt Q61220)
Experiment: affinity purification with mass spectrometry; BMSC membrane proteins incubated with His-labeled recombinant NELL2 and anti-His antibody, adsorbed to protein A/G magnetic beads at room temperature for 30 min; eluate on SDS-PAGE, bands digested, LC-MS/MS; only the target purified

binding: binds
Substance: Fibronectin 1 (Fn1), endogenous in BMSC membrane proteins (from UniProt P11276 33-2477)

These are yes or no findings as the source states them, for the method shown. In cells and extracts the contact can be indirect. Here binding means that the protein was enriched with, or labelled near, the bait; the list need not be complete.
